Results reported in the supplement of paper PMC4862054.

Tested on: SK-BR-3
Assay: normalised viability (% of control), CellTiter-Blue; higher = more viable cells (about 100 = DMSO control)
Conditions: 1000 nM; incubation time: 72 h
Outline: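 Each entry is normalised viability at a single listed concentration within a series. It comes from breast cancer cell lines incubated 72 h with compound in 384-well plates, then measured with CellTiter-Blue fluorescence at 560/590 nm. Every plate was normalised between vehicle (100) and a positive kill control (0).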

## COc1cc2ncnc(Nc3ccc(F)c(Cl)c3)c2cc1OCCCN1CCOCC1 [Gefitinib]
  normalised viability: 62.2%
